Cleaved PARP after 72 h of treatment

Source: doi:10.1371/journal.pone.0140310, primary screening data, rounded.

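The test systems are human melanoma cell lines, treated with two drugs together for 72 h and then stained and imaged. Values are the share of nuclei positive for cleaved PARP as a percentage of the same share in the DMSO control: 100 is the control level, higher means more apoptosis. Concentrations were fixed for each drug; these are the higher of two levels. These are primary screening values without error estimates. The marker varies much from line to line, for technical or biological reasons.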 An unselected part of the screen is shown. A dash means that no value is listed here.

Drugs:
JZL184: O=C(Oc1ccc([N+](=O)[O-])cc1)N1CCC(C(O)(c2ccc3c(c2)OCO3)c2ccc3c(c2)OCO3)CC1 at 5 µM
nilutamide: CC1(C)NC(=O)N(c2ccc([N+](=O)[O-])c(C(F)(F)F)c2)C1=O at 5 µM
MK-2206: NC1(c2ccc(-c3nc4ccn5c(=O)[nH]nc5c4cc3-c3ccccc3)cc2)CCC1 at 2 µM
OSI-906: C[C@]1(O)C[C@@H](c2nc(-c3ccc4ccc(-c5ccccc5)nc4c3)c3c(N)nccn32)C1 at 2 µM
RKI-983: C[C@@H](N)c1ccc(C(=O)Nc2ccnc3[nH]ccc23)cc1 at 2 µM
XAV939: Oc1nc(-c2ccc(C(F)(F)F)cc2)nc2c1CSCC2 at 10 µM
tanespimycin: C=CCNC1=C2C[C@@H](C)C[C@H](OC)[C@H](O)[C@@H](C)/C=C(\C)[C@H](OC(N)=O)[C@@H](OC)/C=C\C=C(/C)C(=O)NC(=CC1=O)C2=O at 0.01 µM
GW2580: COc1ccc(COc2ccc(Cc3cnc(N)nc3N)cc2OC)cc1 at 5 µM

| # | Drugs | WM3619 | RVH-421 | WM1745 | A2058 | COLO 829 | COLO 800 | SK-MEL-28 | SK-MEL-5 | WM1716 | WM451Lu | IPC-298 | SK-MEL-30 | G-361 | MZ2-MEL | UACC-257 |
|---|---|---|---|---|---|---|---|---|---|---|---|---|---|---|---|---|
| 1 | MK-2206 and RKI-983 | 80.6 | 100 | 170 | 354 | 144 | 40.7 | 164 | 716 | 140 | 62.5 | 144 | 166 | 245 | 204 | 141 |
| 2 | XAV939 and RKI-983 | 129 | 122 | - | 230 | 60.9 | 86.2 | 192 | 206 | 658 | 138 | 102 | 288 | 133 | 216 | 104 |
| 3 | GW2580 and tanespimycin | 204 | 151 | - | 117 | 136 | 24.3 | 80.9 | 130 | 62.9 | 69.3 | 46.6 | 93.9 | 304 | 89.4 | 32.9 |
| 4 | GW2580 and JZL184 | 93.6 | 120 | 111 | 88.2 | 59.7 | 194 | 144 | 64.8 | 63.6 | 86.2 | 45.3 | 67.3 | 58.4 | - | 26.0 |
| 5 | MK-2206 and OSI-906 | 110 | 117 | 138 | 123 | 129 | 61.3 | 70.0 | 231 | 59.1 | 69.6 | 174 | 168 | 83.5 | 120 | 76.0 |
| 6 | OSI-906 and JZL184 | 86.5 | 87.1 | - | 49.7 | 38.8 | 120 | 78.5 | 55.6 | 120 | 225 | 82.6 | 108 | 138 | 118 | 30.3 |
| 7 | GW2580 and RKI-983 | 80.8 | 90.9 | - | 139 | 107 | 60.7 | 48.5 | 228 | 657 | 140 | 185 | 141 | 476 | 563 | 113 |
| 8 | MK-2206 and XAV939 | 247 | 125 | - | 127 | 40.1 | 110 | 202 | 106 | 198 | 78.3 | 40.6 | 105 | 81.7 | 35.1 | 80.3 |
| 9 | MK-2206 and GW2580 | 162 | 46.5 | - | 146 | 62.3 | 73.6 | 268 | 55.9 | 26.9 | 136 | 37.9 | 161 | 110 | 128 | 37.9 |
| 10 | OSI-906 and tanespimycin | 146 | 51.7 | 200 | 516 | 139 | 193 | 138 | 484 | 165 | 153 | 178 | 138 | 153 | 175 | 38.7 |
| 11 | OSI-906 and GW2580 | 108 | 52.5 | - | 64.2 | 124 | 202 | 297 | 156 | 47.7 | 227 | 40.5 | 30.4 | 191 | 120 | 66.0 |
| 12 | JZL184 and nilutamide | 97.6 | 35.9 | 73.7 | 76.3 | 40.9 | 58.0 | 51.8 | 58.6 | 18.5 | 49.1 | 127 | 63.4 | 192 | 105 | 42.8 |
| 13 | tanespimycin and nilutamide | 122 | 82.9 | 125 | 177 | 86.9 | 61.0 | 129 | 118 | 118 | 320 | 78.0 | 99.3 | 191 | 251 | 71.3 |
| 14 | JZL184 and RKI-983 | 112 | 103 | - | 190 | 100 | 53.0 | 250 | 166 | 440 | 205 | 36.2 | 179 | 347 | 239 | 39.8 |
| 15 | OSI-906 and nilutamide | 73.7 | 83.0 | 534 | 56.8 | 150 | 109 | 99.8 | 339 | 71.5 | 38.0 | 74.6 | 34.7 | 141 | 81.8 | 76.1 |
| 16 | tanespimycin and MK-2206 | 159 | 152 | 124 | 142 | 94.8 | 97.6 | 68.1 | 117 | 108 | 125 | 123 | 164 | 177 | 90.9 | 26.7 |
| 17 | tanespimycin and XAV939 | 161 | 134 | - | 207 | 127 | 145 | 113 | 187 | 176 | 316 | 139 | 182 | 141 | 126 | 84.4 |
| 18 | JZL184 and XAV939 | 112 | 296 | 126 | 164 | 55.8 | 143 | 130 | 296 | 114 | 58.3 | 43.5 | 105 | 35.2 | 108 | 22.6 |
| 19 | OSI-906 and RKI-983 | 133 | 214 | 249 | 167 | 58.0 | 201 | 56.9 | 105 | 662 | 88.1 | 141 | 226 | 157 | 506 | 175 |
| 20 | RKI-983 and tanespimycin | 158 | 1020 | 234 | 553 | 132 | 57.7 | 298 | 352 | 719 | 237 | 80.6 | 113 | 742 | 748 | 79.8 |
| 21 | XAV939 and GW2580 | 132 | 187 | 105 | 185 | 221 | 110 | 115 | 202 | 68.2 | 77.5 | 48.3 | 35.1 | 101 | 26.7 | 56.6 |
| 22 | nilutamide and GW2580 | 95.9 | 109 | 114 | 75.2 | 33.4 | 43.0 | 86.1 | 257 | 110 | 160 | 95.5 | 88.7 | 101 | 94.2 | 85.6 |
| 23 | nilutamide and RKI-983 | 79.2 | 197 | 275 | 84.5 | 65.5 | 62.9 | 173 | 107 | 555 | 97.6 | 38.9 | 165 | 149 | 512 | 310 |
| 24 | JZL184 and tanespimycin | 187 | 103 | - | 347 | 84.5 | 97.5 | 142 | 162 | 318 | 96.1 | 177 | 126 | 246 | 254 | 23.6 |
| 25 | XAV939 and OSI-906 | 104 | 105 | - | 109 | 70.7 | 358 | 93.5 | 88.4 | 223 | 67.1 | 49.4 | 106 | 97.7 | 121 | 138 |
| 26 | MK-2206 and nilutamide | 96.8 | 134 | 169 | 89.5 | 36.3 | 205 | 36.4 | 126 | 66.3 | 33.3 | 34.7 | 82.1 | 80.2 | 34.5 | 36.6 |
| 27 | nilutamide and XAV939 | 104 | 61.1 | 129 | 101 | 75.5 | 251 | 132 | 114 | 89.3 | 137 | 136 | 89.3 | 80.2 | 30.0 | 98.6 |

Once more, the final 2:

| Drugs | WM3619 | RVH-421 | WM1745 | A2058 | COLO 829 | COLO 800 | SK-MEL-28 | SK-MEL-5 | WM1716 | WM451Lu | IPC-298 | SK-MEL-30 | G-361 | MZ2-MEL | UACC-257 |
|---|---|---|---|---|---|---|---|---|---|---|---|---|---|---|---|
| MK-2206 and nilutamide | 96.8 | 134 | 169 | 89.5 | 36.3 | 205 | 36.4 | 126 | 66.3 | 33.3 | 34.7 | 82.1 | 80.2 | 34.5 | 36.6 |
| nilutamide and XAV939 | 104 | 61.1 | 129 | 101 | 75.5 | 251 | 132 | 114 | 89.3 | 137 | 136 | 89.3 | 80.2 | 30.0 | 98.6 |